According to publication PMC2787496:
Results are given in words; binding and its absence hold for the method and conditions named. For part of these data: Binding seen in cells or lysates may run through a third protein. Some entries that bind do so weakly or less than the wild type.

Protein sequences, listed by entry. Tags and fused reporters are not part of them.
UniProt P03372: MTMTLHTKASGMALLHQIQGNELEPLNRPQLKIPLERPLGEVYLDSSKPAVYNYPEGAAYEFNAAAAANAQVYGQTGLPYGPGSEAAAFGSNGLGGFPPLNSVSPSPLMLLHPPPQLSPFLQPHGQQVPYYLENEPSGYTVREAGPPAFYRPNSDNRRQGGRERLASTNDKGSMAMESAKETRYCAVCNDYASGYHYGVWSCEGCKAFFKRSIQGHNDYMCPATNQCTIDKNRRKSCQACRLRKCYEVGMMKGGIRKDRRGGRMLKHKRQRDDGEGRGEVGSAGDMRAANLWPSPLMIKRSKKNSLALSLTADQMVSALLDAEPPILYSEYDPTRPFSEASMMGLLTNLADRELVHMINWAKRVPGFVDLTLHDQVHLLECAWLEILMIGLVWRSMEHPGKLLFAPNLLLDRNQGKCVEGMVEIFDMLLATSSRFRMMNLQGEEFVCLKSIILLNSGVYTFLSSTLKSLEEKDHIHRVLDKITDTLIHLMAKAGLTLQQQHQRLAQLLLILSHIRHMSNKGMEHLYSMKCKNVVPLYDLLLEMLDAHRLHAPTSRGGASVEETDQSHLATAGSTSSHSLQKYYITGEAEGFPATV
UniProt Q13485: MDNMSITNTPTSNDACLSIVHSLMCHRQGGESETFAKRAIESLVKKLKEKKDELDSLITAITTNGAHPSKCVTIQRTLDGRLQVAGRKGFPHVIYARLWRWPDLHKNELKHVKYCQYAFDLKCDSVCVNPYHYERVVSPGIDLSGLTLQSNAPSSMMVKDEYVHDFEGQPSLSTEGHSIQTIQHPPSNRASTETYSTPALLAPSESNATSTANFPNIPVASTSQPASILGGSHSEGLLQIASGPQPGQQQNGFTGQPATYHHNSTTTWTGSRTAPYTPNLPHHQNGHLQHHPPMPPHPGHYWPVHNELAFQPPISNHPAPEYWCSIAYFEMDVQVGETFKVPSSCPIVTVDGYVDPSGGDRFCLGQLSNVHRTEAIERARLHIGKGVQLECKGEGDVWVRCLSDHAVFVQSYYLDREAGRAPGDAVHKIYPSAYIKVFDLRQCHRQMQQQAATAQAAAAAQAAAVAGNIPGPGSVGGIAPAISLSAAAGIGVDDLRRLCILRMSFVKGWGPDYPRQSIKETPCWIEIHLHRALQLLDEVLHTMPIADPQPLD
UniProt P84022: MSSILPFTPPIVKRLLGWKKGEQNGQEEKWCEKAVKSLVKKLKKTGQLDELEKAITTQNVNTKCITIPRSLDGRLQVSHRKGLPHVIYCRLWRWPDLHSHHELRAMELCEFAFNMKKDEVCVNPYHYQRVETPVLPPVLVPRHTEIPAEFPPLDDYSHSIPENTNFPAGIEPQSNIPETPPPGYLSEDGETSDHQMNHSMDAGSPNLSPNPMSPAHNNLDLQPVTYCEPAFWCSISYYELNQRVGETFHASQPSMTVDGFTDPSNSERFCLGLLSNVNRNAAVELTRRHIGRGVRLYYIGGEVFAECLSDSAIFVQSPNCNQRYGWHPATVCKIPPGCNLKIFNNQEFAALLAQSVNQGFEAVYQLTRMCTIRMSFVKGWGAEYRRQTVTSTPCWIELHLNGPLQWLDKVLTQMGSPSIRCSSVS

How the values were obtained:
[1] = molecular target: HA-tagged human ERα (human) (UniProt P03372); test: sequential immunoprecipitation and DNA precipitation (DNAP); COS-1 cells co-transfected with HA-ERα, FLAG-Smad3 and FLAG-Smad4, treated with or without E2 and TGF-β1; anti-HA immunoprecipitation, elution with HA peptide, precipitation with biotinylated wild-type or mutant ERE …; immunoblot with anti-FLAG and anti-HA
[2] = molecular target: Smad4, endogenous in MCF-7 cells (human (endogenous in MCF-7)) (UniProt Q13485); test: co-IP; endogenous proteins of MCF-7 cells treated with vehicle, E2 or E2 + TGF-β1 for 1 hr; lysis in radioimmune precipitation assay buffer; immunoprecipitation with anti-Smad4 or anti-Smad2/3 and protein A/G beads, 3 hr at 4°C; immunoblot for ERα

Substance	binding [1]	binding [2]
FLAG-tagged Smad3 (from UniProt P84022 1-425)	binds	–
FLAG-tagged Smad4 (from UniProt Q13485 1-552)	binds	–
estrogen receptor alpha (ERα), endogenous in MCF-7 cells (from UniProt P03372 1-595)	–	binds
